Measurements reported in patent US20070196914A1, “Methods for preparing oil bodies comprising active ingredients” (SemBioSys Genetics Inc., priority 2003, published 2007).
At least one structure is not confirmed: it was looked up by name or label, or the drawing left a doubt.

Assay: Partitioning of active into washed safflower oil bodies (free oil / total oil extraction, HPLC or absorbance)
Type: physicochemical, safflower (Carthamus tinctorius)
Parameters: level of active incorporated into the oil bodies as a percentage of dry weight: concentration or dose not given beside the values
Conditions: two-solvent loading, incubated overnight at 34-37° C. (CP 34-42° C.)
From the text: Hexane extraction may be used to determine the amount of active present in the free oil (free oil is defined as oil not contained within oil bodies. Note that the intact oil bodies are largely resistant to extraction by hexane alone). (Tzen et al. (1997) J. Biochem 121: 762-768.) Once the free oil has been removed from the active/oil body fraction, an analysis of the total remaining oil may be performed using for example, hexane:isopropanol, chloroform, or chloroform:methanol solution extraction. The amount of active present in both the free oil fraction and the total oil fraction can be determined by a number of methods including, but not limited to, high performance liquid chromatography (HPLC), spectrophotometry, fluorescence, or activity assays depending on the active. By comparing the amount of active in both the free oil fraction and the total oil fraction the average amount of active incorporated into the intact oil bodies can be determined. In general, the efficiency of partitioning of the active into intact oil bodies can range from about 10 to about 99.9%. […]
Washed safflower oil bodies were prepared as described in example 1. […] The remaining total oil in intact oil bodies was determined by adding 4 ml of a 3:2 hexane:isopropanol solution (HIP) and shaking to mix vigorously until all of the oil was dissolved in the HIP solvent (about 10-20 seconds). […]

CC1=C(/C=C/C(C)=C/C=C/C(C)=C/C(=O)O)C(C)(C)CCC1 [RA, (all-E)-3,7-Dimethyl-9-(2,6,6-trimethyl-1-cyclohexen-1-yl)-2,4,6,8-nonatetraenoic acid]
level of active incorporated into the oil bodies as a percentage of dry weight: 0.195%
average % of the active added that was incorporated into the intact oil bodies (average): 94.72%
